Assay results published in doi:10.1101/2023.08.09.552644.

Biological target: Foxo1 lacking the forkhead domain (NanoBiT deletion construct) (mouse)
Assay: split reporter

binding: binds
B1: Mkl2 (NanoBiT construct) (protein, UniProt P59759 1-1080)
chain: MIDSSKKQPQGFPEILTAEDFEPFKEKECLEGSNQKSLKEVLQLRLQQRRTREQLVDQGIMPPLKSPAAFHEQIKSLERARTENFLKHKIRSRPDRSELVRMHILEETFAEPSLQATQMKLKRARLADDLNEKIAQRPGPMELVEKNILPVDSSVKEAIIGVVKEDYPHTHGEFSFDEDSSDALSPDQPASQESQGSAASPSEPKVSASPPPVTASTPAQFTSVSPAVPEFLKTPLTADQPPTRSTAPVLPTNTVSSAKSGPMLVKQSHPKNPNDKHRSKKCKDPKPRVKKLKYHQYIPPNQKGEKSEPQMDSNYARLLQQQQLFLQLQILSQQQQQQQQQHYNYQTILPAPIKTDKNSSSGSNSGSSSSMPARRPGPLPSSLDDLKVSELKTELKLRGLPVSGTKPDLIERLKPYQEVTSSNLATGSIVAVSSATIVTSNPEVTVALPVTTLHNAVTSSVSTFKADLALPATSSVPHVENAHSPLPISPSPSEQSSLSTDDTNMTDTFTEIMTMMSPSQLLCSSPLRVVSHDDSLSPSSSTLSTLELDAAEKDRKLQEKEKQIEELKRKLEQEQKLVEVLKMQLEVEKRGQQRPPDPQPSDPPHPFNTSDPKHGSVGSSIKDEASLPDCSSPQQPITVPGHSVGQPISTGSQTLVAKKTVVVKQEVPMAQAEQQNVVSQFYLSSQGQPPALVAQPQALLTTQTTQLLLPVSIQGSNVTSVQLPVGSLQLQTPAQGRVQAQPHVAAATQVPAAALPSALTSALPQKQEAFPQHVLGQPQPVRKVFTNSAPNTVLQYQRQPGPTNQQPFVSKTSNPALQSRTAPLAPLQNGPSLASKPSSPPPPQQFVVQHSLFATPITKTKDPPRYEEAIKQTRSTQPALPEVSSVHSQQMDDLFDILIKSGEISFPIKEEPSPISKMKPVTASITTMPVNTVVSRPPPQVQIAPPVSLEPVNSLSASLENQLEAFLDGTLPSATDTGPLQNSSEDRESFSLIEDLQNDLLSHSSMLYQSHSPMETSEAQLVSGTPCLSLDLSDSNLDNMEWLDITMPTTSSGLTPLSTTAPSMFSADFLDPQDLPLPWD

Results are given in words; binding and its absence hold for the method and conditions named. Binding seen in cells or lysates may run through a third protein. Binding calls can cover weak binding; strength is not graded here.
